The list shows a part of the results. Most values lie at the level of the controls, where differences are scatter.
Compound: Cc1nc(Nc2ncc(C(=O)Nc3c(C)cccc3Cl)s2)cc(N2CCN(CCO)CC2)n1 [dasatinib]
Assay: log2 fold change of tryptic peptide abundance, ligand vs vehicle (limited proteolysis) (log2 ratio); higher = more trypsin-susceptible (destabilized)
Conditions: ligand concentration: 5 uM; sample: K562 cleared lysate

Protein sequences, listed by entry. Tags and fused reporters are not part of them. Lines headed by an entry give the natural chain unless they say otherwise; changes in a name come on top.
UniProt Q9Y2Y0: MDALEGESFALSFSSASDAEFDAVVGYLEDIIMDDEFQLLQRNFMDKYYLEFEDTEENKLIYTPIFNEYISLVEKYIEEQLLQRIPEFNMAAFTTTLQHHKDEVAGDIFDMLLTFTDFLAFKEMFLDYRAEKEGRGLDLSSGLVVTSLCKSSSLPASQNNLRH
UniProt Q9Y6J0: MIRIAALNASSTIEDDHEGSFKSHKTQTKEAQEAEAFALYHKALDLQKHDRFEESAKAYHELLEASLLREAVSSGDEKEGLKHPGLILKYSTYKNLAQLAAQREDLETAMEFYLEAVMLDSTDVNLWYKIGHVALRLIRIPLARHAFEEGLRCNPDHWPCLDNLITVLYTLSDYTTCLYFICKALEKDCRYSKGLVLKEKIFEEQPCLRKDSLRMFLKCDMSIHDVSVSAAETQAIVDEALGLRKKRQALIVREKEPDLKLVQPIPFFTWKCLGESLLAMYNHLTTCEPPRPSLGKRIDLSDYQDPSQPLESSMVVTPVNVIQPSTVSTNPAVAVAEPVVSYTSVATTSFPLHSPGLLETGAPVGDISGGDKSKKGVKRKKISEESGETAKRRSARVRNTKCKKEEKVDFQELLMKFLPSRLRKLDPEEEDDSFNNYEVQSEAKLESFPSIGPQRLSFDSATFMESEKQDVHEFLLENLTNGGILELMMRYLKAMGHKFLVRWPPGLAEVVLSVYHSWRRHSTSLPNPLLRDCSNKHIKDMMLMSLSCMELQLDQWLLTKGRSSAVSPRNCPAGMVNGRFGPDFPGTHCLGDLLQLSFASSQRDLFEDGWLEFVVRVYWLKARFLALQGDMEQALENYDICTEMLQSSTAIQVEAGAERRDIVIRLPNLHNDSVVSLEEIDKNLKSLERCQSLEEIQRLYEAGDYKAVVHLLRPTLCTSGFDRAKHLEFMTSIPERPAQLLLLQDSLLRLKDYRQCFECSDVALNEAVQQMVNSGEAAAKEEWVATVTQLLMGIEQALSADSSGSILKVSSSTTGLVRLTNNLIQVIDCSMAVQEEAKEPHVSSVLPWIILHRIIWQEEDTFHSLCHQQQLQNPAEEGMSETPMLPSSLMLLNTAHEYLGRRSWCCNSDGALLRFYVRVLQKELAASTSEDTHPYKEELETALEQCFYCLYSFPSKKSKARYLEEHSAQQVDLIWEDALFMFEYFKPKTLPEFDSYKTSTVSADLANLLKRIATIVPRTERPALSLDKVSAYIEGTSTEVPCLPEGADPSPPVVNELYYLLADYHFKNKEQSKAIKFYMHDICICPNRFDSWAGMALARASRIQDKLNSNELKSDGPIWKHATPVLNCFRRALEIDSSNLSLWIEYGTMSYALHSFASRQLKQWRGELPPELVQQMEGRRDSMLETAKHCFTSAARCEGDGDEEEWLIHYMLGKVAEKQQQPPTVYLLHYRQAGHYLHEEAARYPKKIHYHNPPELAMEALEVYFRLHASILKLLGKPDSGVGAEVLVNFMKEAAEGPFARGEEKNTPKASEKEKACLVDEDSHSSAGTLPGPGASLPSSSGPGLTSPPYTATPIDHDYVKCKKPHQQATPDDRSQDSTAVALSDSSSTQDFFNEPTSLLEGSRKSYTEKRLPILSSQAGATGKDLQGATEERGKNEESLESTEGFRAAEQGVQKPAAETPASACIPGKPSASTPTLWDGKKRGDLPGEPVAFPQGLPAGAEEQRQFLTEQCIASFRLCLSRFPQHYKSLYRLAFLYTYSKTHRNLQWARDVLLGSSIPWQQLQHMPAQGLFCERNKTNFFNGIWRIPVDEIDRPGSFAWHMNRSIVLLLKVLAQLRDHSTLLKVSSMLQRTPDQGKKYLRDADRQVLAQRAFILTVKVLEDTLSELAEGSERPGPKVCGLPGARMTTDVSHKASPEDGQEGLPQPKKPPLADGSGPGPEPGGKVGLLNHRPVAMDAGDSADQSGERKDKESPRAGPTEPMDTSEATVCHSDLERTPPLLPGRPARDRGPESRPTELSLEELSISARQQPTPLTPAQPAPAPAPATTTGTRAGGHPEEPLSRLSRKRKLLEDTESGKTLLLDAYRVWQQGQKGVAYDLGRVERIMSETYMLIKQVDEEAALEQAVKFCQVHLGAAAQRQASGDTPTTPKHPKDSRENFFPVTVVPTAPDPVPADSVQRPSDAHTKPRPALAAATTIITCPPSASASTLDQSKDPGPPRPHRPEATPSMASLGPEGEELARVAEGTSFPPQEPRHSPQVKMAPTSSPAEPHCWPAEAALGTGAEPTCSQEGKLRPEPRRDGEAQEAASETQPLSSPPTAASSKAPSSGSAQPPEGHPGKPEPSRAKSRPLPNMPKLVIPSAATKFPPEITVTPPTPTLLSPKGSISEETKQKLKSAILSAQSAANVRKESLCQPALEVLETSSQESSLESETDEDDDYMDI
UniProt Q9Y5P4: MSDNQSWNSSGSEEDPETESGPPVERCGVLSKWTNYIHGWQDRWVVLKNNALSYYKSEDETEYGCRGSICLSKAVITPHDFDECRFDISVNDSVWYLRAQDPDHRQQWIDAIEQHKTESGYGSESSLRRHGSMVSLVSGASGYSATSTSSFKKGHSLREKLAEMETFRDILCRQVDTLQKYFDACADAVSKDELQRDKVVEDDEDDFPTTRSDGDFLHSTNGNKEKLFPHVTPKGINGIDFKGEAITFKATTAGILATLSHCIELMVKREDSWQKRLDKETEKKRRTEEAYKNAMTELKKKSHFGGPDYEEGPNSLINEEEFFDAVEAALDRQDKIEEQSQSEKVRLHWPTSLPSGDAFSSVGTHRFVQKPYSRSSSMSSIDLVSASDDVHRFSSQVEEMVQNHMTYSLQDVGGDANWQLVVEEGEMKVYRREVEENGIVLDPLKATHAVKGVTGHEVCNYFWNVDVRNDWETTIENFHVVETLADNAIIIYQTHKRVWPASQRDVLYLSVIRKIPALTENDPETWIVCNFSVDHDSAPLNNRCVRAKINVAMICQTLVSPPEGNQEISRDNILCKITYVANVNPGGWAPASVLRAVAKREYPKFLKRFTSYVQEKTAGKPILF
UniProt Q9Y2K5: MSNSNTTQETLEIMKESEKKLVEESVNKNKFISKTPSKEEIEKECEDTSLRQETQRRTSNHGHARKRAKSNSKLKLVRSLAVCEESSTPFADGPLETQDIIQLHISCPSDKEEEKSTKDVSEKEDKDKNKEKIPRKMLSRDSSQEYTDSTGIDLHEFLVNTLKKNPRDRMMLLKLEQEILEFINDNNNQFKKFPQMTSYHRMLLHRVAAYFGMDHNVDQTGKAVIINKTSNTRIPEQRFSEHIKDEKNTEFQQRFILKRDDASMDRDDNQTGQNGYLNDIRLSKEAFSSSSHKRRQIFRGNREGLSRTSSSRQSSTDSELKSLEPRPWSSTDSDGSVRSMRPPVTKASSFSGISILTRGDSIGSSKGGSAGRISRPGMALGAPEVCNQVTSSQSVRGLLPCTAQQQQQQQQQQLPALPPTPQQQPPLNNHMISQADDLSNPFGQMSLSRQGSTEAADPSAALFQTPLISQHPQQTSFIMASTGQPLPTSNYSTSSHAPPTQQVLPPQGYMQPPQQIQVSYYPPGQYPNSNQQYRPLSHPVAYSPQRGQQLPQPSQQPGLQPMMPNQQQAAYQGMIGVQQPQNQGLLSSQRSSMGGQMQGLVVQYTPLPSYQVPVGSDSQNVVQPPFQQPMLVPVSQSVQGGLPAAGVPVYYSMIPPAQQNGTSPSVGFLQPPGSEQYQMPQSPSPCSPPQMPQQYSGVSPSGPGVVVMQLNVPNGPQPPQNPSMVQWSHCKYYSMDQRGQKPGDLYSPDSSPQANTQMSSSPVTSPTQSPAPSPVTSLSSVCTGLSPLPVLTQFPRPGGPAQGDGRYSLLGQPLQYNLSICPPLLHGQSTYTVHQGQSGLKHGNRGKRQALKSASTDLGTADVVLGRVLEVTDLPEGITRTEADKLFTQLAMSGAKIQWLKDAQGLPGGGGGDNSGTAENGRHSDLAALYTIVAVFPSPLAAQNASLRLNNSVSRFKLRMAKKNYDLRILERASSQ
UniProt Q9Y6H1: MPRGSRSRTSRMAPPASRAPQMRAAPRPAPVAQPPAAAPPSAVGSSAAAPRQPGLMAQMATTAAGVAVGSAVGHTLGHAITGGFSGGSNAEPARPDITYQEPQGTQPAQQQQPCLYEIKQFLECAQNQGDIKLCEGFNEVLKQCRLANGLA
UniProt Q9Y617: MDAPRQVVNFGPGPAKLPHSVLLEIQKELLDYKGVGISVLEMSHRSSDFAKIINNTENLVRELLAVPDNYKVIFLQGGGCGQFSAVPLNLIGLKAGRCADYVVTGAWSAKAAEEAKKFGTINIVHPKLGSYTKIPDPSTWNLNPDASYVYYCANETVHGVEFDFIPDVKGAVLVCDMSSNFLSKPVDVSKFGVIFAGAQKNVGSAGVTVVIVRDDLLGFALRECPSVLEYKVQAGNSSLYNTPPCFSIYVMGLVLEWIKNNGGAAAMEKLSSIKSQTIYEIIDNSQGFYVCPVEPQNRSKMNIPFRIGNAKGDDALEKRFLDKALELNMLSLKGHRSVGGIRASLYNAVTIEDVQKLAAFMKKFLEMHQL
UniProt Q9Y5A7: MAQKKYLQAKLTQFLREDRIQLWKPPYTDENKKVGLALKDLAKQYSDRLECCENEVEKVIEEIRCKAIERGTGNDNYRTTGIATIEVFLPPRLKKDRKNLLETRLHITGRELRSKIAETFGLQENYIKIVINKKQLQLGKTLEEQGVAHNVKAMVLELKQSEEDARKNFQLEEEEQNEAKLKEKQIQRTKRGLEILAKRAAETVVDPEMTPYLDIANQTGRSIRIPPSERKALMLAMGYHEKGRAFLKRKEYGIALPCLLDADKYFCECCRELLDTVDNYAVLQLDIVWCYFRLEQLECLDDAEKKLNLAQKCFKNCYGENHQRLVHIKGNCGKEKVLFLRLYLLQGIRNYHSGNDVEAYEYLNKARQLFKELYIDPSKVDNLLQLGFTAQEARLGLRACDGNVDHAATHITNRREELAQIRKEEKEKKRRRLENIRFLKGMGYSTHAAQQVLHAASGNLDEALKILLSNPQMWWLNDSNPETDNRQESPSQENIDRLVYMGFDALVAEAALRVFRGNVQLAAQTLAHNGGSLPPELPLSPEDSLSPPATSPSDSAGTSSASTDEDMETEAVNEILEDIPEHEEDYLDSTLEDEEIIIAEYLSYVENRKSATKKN
UniProt Q9Y5X3: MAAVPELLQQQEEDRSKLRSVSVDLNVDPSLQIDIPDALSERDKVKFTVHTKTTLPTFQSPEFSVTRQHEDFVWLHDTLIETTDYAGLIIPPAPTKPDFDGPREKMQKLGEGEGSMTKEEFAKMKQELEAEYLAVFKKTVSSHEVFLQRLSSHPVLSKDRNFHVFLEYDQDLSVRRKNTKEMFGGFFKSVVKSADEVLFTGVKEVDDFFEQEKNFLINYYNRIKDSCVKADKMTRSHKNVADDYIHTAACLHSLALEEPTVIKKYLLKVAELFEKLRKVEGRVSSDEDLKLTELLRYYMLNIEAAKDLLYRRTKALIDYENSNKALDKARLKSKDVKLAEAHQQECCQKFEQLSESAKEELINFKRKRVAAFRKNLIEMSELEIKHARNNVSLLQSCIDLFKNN
UniProt Q9Y4U1: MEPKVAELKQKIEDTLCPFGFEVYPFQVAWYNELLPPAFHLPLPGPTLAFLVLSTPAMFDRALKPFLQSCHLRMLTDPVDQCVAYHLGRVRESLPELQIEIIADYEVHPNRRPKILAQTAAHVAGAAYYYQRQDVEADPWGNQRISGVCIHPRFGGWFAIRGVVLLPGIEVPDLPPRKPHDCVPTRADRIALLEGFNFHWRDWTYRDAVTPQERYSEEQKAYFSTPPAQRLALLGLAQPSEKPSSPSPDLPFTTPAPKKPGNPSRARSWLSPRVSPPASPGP
UniProt Q9Y6P5: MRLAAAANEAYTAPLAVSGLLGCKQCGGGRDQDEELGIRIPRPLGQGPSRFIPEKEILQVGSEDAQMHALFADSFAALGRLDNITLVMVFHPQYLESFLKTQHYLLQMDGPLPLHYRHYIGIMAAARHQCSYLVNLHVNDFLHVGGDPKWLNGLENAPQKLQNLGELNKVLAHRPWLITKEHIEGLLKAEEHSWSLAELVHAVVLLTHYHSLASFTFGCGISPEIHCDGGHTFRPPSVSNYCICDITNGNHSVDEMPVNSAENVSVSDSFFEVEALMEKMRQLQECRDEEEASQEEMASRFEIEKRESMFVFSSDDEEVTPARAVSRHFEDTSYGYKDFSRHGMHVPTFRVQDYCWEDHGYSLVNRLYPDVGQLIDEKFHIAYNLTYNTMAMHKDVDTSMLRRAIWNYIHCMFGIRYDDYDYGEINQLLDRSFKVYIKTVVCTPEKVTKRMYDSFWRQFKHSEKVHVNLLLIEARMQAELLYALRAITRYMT
UniProt Q9Y2Y6: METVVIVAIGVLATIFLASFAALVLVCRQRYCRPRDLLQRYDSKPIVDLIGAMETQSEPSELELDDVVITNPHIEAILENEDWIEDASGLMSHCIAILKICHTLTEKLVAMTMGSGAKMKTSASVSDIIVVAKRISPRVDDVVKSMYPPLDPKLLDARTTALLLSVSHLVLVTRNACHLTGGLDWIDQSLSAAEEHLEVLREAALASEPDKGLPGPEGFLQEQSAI

Target	log2 fold change
DIS3 (peptide sequence: KIHEEFSEHALLR, peptide start residue: 677) (UniProt Q9Y2L1)	-0.669
FKBP7 (peptide sequence: NDHDGDGFISPK, peptide start residue: 201) (UniProt Q9Y680)	0.284
RBMX2 (peptide sequence: TIRVDHVSNYR, peptide start residue: 106) (UniProt Q9Y388)	-0.501
SPIN1 (peptide sequence: SSVGPSKPVSQPR, peptide start residue: 38) (UniProt Q9Y657)	0.134
WSB1 (peptide sequence: LLLNLVDHTEVVR, peptide start residue: 162) (UniProt Q9Y6I7)	0.312
UBIAD1 (peptide sequence: INILSGETVK, peptide start residue: 11) (UniProt Q9Y5Z9)	-0.0121
SNX24 (peptide sequence: IEVLMNGR, peptide start residue: 24) (UniProt Q9Y343)	-0.188
ARL2BP (peptide sequence: SSSLPASQNNLR, peptide start residue: 151) (UniProt Q9Y2Y0)	0.087
NOP16 (peptide sequence: YMVENHGEDYK, peptide start residue: 121) (UniProt Q9Y3C1)	0.169
IKBKG (peptide sequence: ECQALEGR, peptide start residue: 166) (UniProt Q9Y6K9)	0.066
ATP11B (peptide sequence: CSPTHISR, peptide start residue: 1144) (UniProt Q9Y2G3)	-0.256
CABIN1 (peptide sequence: KISEESGETAK, peptide start residue: 381) (UniProt Q9Y6J0)	0.66
UniProt Q9Y5P4 (peptide sequence: SDGDFLHSTNGNKEK, peptide start residue: 212)	-0.119
SSX2IP (peptide sequence: QDHEQETEKLELEIQQCK, peptide start residue: 377) (UniProt Q9Y2D8)	0.382
STXBP5L (peptide sequence: HAHELMLK, peptide start residue: 1170) (UniProt Q9Y2K9)	0.0257
SNX8 (peptide sequence: EPESVEQLESR, peptide start residue: 365) (UniProt Q9Y5X2)	0.138
AUP1 (peptide sequence: VKEVLPHVPLGVIQR, peptide start residue: 304) (UniProt Q9Y679)	0.0789
UniProt Q9Y2K5 (peptide sequence: ASSFSGISILTR, peptide start residue: 347)	-0.336
CHCHD2 (peptide sequence: AAPRPAPVAQPPAAAPPSAVGSSAAAPR, peptide start residue: 24) (UniProt Q9Y6H1)	0.177

Target	log2 fold change
LEMD3 (peptide sequence: THSKPLPPLTAK, peptide start residue: 289) (UniProt Q9Y2U8)	0.494
AFG3L2 (peptide sequence: HFEQAIER, peptide start residue: 544) (UniProt Q9Y4W6)	0.317
PSAT1 (peptide sequence: QVVNFGPGPAK, peptide start residue: 6) (UniProt Q9Y617)	0.438
NUB1 (peptide sequence: LEQLECLDDAEKK, peptide start residue: 294) (UniProt Q9Y5A7)	0.362
RRP15 (peptide sequence: VKPDVVQDKETER, peptide start residue: 148) (UniProt Q9Y3B9)	0.114
ZNF652 (peptide sequence: MSKPHLHETEEQPYFR, peptide start residue: 67) (UniProt Q9Y2D9)	-0.0409
ARFGEF1 (peptide sequence: CISQLELAQLIGTGVKPR, peptide start residue: 1050) (UniProt Q9Y6D6)	0.127
SNX5 (peptide sequence: NLIEMSELEIKHAR, peptide start residue: 375) (UniProt Q9Y5X3)	-0.477
MMACHC (peptide sequence: DAVTPQER, peptide start residue: 207) (UniProt Q9Y4U1)	0.138
SESN1 (peptide sequence: HSEKVHVNLLLIEAR, peptide start residue: 461) (UniProt Q9Y6P5)	0.0535
ZSCAN21 (peptide sequence: AFGQSSDLLK, peptide start residue: 340) (UniProt Q9Y5A6)	-0.414
CCDC61 (peptide sequence: EYSSEHQAADMAEIDAR, peptide start residue: 481) (UniProt Q9Y6R9)	0.596
UniProt Q9Y2E4 (peptide sequence: YHPIDIETSVIR, peptide start residue: 1469)	-0.484
MED31 (peptide sequence: FIDEQQILHWQHYSR, peptide start residue: 96) (UniProt Q9Y3C7)	-0.0769
NCOR2 (peptide sequence: PLVPPVSGHATIAR, peptide start residue: 1980) (UniProt Q9Y618)	-0.696
GPSM3 (peptide sequence: SRPPTHTC, peptide start residue: 153) (UniProt Q9Y4H4)	0.192
UniProt Q9Y5S9 (peptide sequence: NIHLNLDR, peptide start residue: 101)	0.197
TMEM98 (peptide sequence: TSASVSDIIVVAK, peptide start residue: 121) (UniProt Q9Y2Y6)	0.394

Another view of some results above.
Target | log2 fold change
RRP15 (peptide sequence: VKPDVVQDKETER, peptide start residue: 148) (UniProt Q9Y3B9) | 0.114
SNX5 (peptide sequence: NLIEMSELEIKHAR, peptide start residue: 375) (UniProt Q9Y5X3) | -0.477
MMACHC (peptide sequence: DAVTPQER, peptide start residue: 207) (UniProt Q9Y4U1) | 0.138
ZSCAN21 (peptide sequence: AFGQSSDLLK, peptide start residue: 340) (UniProt Q9Y5A6) | -0.414
CCDC61 (peptide sequence: EYSSEHQAADMAEIDAR, peptide start residue: 481) (UniProt Q9Y6R9) | 0.596
UniProt Q9Y5S9 (peptide sequence: NIHLNLDR, peptide start residue: 101) | 0.197

— the supplement of paper PMC12819154, “High-throughput peptide-centric local stability assay extends protein–ligand identification to membrane proteins, tissues and bacteria” (Nature Structural & Molecular Biology, 2025)
